Laboratory results published in patent US6379959.
No constants are given. Whether binding was seen depends on the method and setting. Binding calls can cover weak binding; strength is not graded here.

Target: carboxypeptidase A
Assay: inhibition of carboxypeptidase A activity by RITC-labeled PCI

EQHADPICNKPCKTHDDCSGAWFCQACWNSARTCGPYVG [potato carboxypeptidase inhibitor, isoform IIa, recombinant]
binding: binds
